Experimental data as given in the supplement of paper PMC10032668.
The list shows a part of the results. Only hits are listed; about a third recur on repeated control peptides.

Experiments:
Assay in all cases: PRISMA enrichment of interactor (LFQ) in peptide spot vs all other peptide spots (log2 fold change); higher = stronger / more specific binding of the interactor to the peptide
ALDH4A1, P30038 = target: ALDH4A1, P30038
Experimental: (§1)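 PRISMA: 15-aa overlapping tiles (offset 8 aa) of 60 microproteins, plus SOS1/GLUT1 control peptides, were spot-synthesized on cellulose membranes in triplicate. Membranes were incubated with benzonase-treated HEK293T lysate, and bound proteins were identified by LC-MS/MS with LFQ. Enrichment is the log2 fold change of each protein in one spot versus all other spots. Only interactors passing the significance cutoff are listed.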

ARF1, P84077 = target: ARF1, P84077
Experimental: as §1

ARGLU1, Q9NWB6 = target: ARGLU1, Q9NWB6
Experimental: as §1

ATRN, O75882 = target: ATRN, O75882
Experimental: as §1

BANF1, O75531 = target: BANF1, O75531
Experimental: as §1

BCOR, Q6W2J9 = target: BCOR, Q6W2J9
Experimental: as §1

BOLA2, Q9H3K6 = target: BOLA2, Q9H3K6
Experimental: as §1

CALD1, Q05682 = target: CALD1, Q05682
Experimental: as §1

CCAR2, Q8N163 = target: CCAR2, Q8N163
Experimental: as §1

CDCA7L, Q96GN5 = target: CDCA7L, Q96GN5
Experimental: as §1

CEBPZ, Q03701 = target: CEBPZ, Q03701
Experimental: as §1

CSDE1, O75534 = target: CSDE1, O75534
Experimental: as §1

DIS3, Q9Y2L1 = target: DIS3, Q9Y2L1
Experimental: as §1

DYNLRB1, Q9NP97 = target: DYNLRB1, Q9NP97
Experimental: as §1

ENAH, Q8N8S7 = target: ENAH, Q8N8S7
Experimental: as §1

EXOC3, O60645 = target: EXOC3, O60645
Experimental: as §1

FAM133B, Q5BKY9 = target: FAM133B, Q5BKY9
Experimental: as §1

GTF2E2, P29084 = target: GTF2E2, P29084
Experimental: as §1

HK2, P52789 = target: HK2, P52789
Experimental: as §1

IPO9, Q96P70 = target: IPO9, Q96P70
Experimental: as §1

KNOP1, Q1ED39 = target: KNOP1, Q1ED39
Experimental: as §1

KTN1, Q86UP2 = target: KTN1, Q86UP2
Experimental: as §1

MAIP1, Q8WWC4 = target: MAIP1, Q8WWC4
Experimental: as §1

MRPL22, Q9NWU5 = target: MRPL22, Q9NWU5
Experimental: as §1

MRPS6, P82932 = target: MRPS6, P82932
Experimental: as §1

MTOR, P42345 = target: MTOR, P42345
Experimental: as §1

MTREX, P42285 = target: MTREX, P42285
Experimental: as §1

NUP188, Q5SRE5 = target: NUP188, Q5SRE5
Experimental: as §1

NUP58, Q9BVL2 = target: NUP58, Q9BVL2
Experimental: as §1

NUP93, Q8N1F7 = target: NUP93, Q8N1F7
Experimental: as §1

ORC6, Q9Y5N6 = target: ORC6, Q9Y5N6
Experimental: as §1

POLD1, P28340 = target: POLD1, P28340
Experimental: as §1

PSMC6, P62333 = target: PSMC6, P62333
Experimental: as §1

PTCD3, Q96EY7 = target: PTCD3, Q96EY7
Experimental: as §1

RIOK1, Q9BRS2 = target: RIOK1, Q9BRS2
Experimental: as §1

SPOUT1, Q5T280 = target: SPOUT1, Q5T280
Experimental: as §1

SUCLG2, Q96I99 = target: SUCLG2, Q96I99
Experimental: as §1

THOC2, Q8NI27 = target: THOC2, Q8NI27
Experimental: as §1

TRIP13, Q15645 = target: TRIP13, Q15645
Experimental: as §1

USP34, Q70CQ2 = target: USP34, Q70CQ2
Experimental: as §1

XRN1, Q8IZH2 = target: XRN1, Q8IZH2
Experimental: as §1

hCG_1984214 = target: hCG_1984214
Experimental: as §1

AURKB, Q96GD4 = target: AURKB, Q96GD4
Experimental: as §1

CRABP2, P29373 = target: CRABP2, P29373
Experimental: as §1

CTTN, Q14247 = target: CTTN, Q14247
Experimental: as §1

DDX28, Q9NUL7 = target: DDX28, Q9NUL7
Experimental: as §1

EIF2D, P41214 = target: EIF2D, P41214
Experimental: as §1

ESYT2, A0FGR8 = target: ESYT2, A0FGR8
Experimental: as §1

GTF3C5, Q9Y5Q8 = target: GTF3C5, Q9Y5Q8
Experimental: as §1

HEATR3, Q7Z4Q2 = target: HEATR3, Q7Z4Q2
Experimental: as §1

HELLS, Q9NRZ9 = target: HELLS, Q9NRZ9
Experimental: as §1

JUP, P14923 = target: JUP, P14923
Experimental: as §1

KLF16, Q9BXK1 = target: KLF16, Q9BXK1
Experimental: as §1

LSG1, Q9H089 = target: LSG1, Q9H089
Experimental: as §1

MMTAG2, Q9BU76 = target: MMTAG2, Q9BU76
Experimental: as §1

MRPL14, Q6P1L8 = target: MRPL14, Q6P1L8
Experimental: as §1

NOC3L, Q8WTT2 = target: NOC3L, Q8WTT2
Experimental: as §1

OGFR, Q9NZT2 = target: OGFR, Q9NZT2
Experimental: as §1

PINX1, Q96BK5 = target: PINX1, Q96BK5
Experimental: as §1

PPP1R12A, O14974 = target: PPP1R12A, O14974
Experimental: as §1

PPP1R2, P41236 = target: PPP1R2, P41236
Experimental: as §1

RBM34, P42696 = target: RBM34, P42696
Experimental: as §1

SRRM1, Q8IYB3 = target: SRRM1, Q8IYB3
Experimental: as §1

TIPIN, Q9BVW5 = target: TIPIN, Q9BVW5
Experimental: as §1

TRIM26, Q12899 = target: TRIM26, Q12899
Experimental: as §1

UTP3, Q9NQZ2 = target: UTP3, Q9NQZ2
Experimental: as §1

YTHDC1, Q96MU7 = target: YTHDC1, Q96MU7
Experimental: as §1

B1: ABR (peptide)
chain: GPAWWVVSEVLAEQR
PRISMA enrichment of interactor (log2) (ALDH4A1, P30038): 6.34
PRISMA enrichment of interactor (log2) (ARF1, P84077): 4.62
PRISMA enrichment of interactor (log2) (ARGLU1, Q9NWB6): 5.07
PRISMA enrichment of interactor (log2) (ATRN, O75882): 5.81
PRISMA enrichment of interactor (log2) (BANF1, O75531): 3.78
PRISMA enrichment of interactor (log2) (BCOR, Q6W2J9): 6.42
PRISMA enrichment of interactor (log2) (BOLA2, Q9H3K6): 4.96
PRISMA enrichment of interactor (log2) (CALD1, Q05682): 4.98
PRISMA enrichment of interactor (log2) (CCAR2, Q8N163): 4.61
PRISMA enrichment of interactor (log2) (CDCA7L, Q96GN5): 12.2
PRISMA enrichment of interactor (log2) (CEBPZ, Q03701): 6.96
PRISMA enrichment of interactor (log2) (CSDE1, O75534): 4.56
PRISMA enrichment of interactor (log2) (DIS3, Q9Y2L1): 5.35
PRISMA enrichment of interactor (log2) (DYNLRB1, Q9NP97): 5.18
PRISMA enrichment of interactor (log2) (ENAH, Q8N8S7): 7.18
PRISMA enrichment of interactor (log2) (EXOC3, O60645): 5.38
PRISMA enrichment of interactor (log2) (FAM133B, Q5BKY9): 4.43
PRISMA enrichment of interactor (log2) (GTF2E2, P29084): 5.3
PRISMA enrichment of interactor (log2) (HK2, P52789): 5.19
PRISMA enrichment of interactor (log2) (IPO9, Q96P70): 4.7
PRISMA enrichment of interactor (log2) (KNOP1, Q1ED39): 5.62
PRISMA enrichment of interactor (log2) (KTN1, Q86UP2): 4.69
PRISMA enrichment of interactor (log2) (MAIP1, Q8WWC4): 4.16
PRISMA enrichment of interactor (log2) (MRPL22, Q9NWU5): 7.76
PRISMA enrichment of interactor (log2) (MRPS6, P82932): 5.32
PRISMA enrichment of interactor (log2) (MTOR, P42345): 7.55
PRISMA enrichment of interactor (log2) (MTREX, P42285): 4.06
PRISMA enrichment of interactor (log2) (NUP188, Q5SRE5): 5.15
PRISMA enrichment of interactor (log2) (NUP58, Q9BVL2): 4.57
PRISMA enrichment of interactor (log2) (NUP93, Q8N1F7): 4.73
PRISMA enrichment of interactor (log2) (ORC6, Q9Y5N6): 5.21
PRISMA enrichment of interactor (log2) (POLD1, P28340): 5.15
PRISMA enrichment of interactor (log2) (PSMC6, P62333): 4.78
PRISMA enrichment of interactor (log2) (PTCD3, Q96EY7): 7.92
PRISMA enrichment of interactor (log2) (RIOK1, Q9BRS2): 11.1
PRISMA enrichment of interactor (log2) (SPOUT1, Q5T280): 4.83
PRISMA enrichment of interactor (log2) (SUCLG2, Q96I99): 4.71
PRISMA enrichment of interactor (log2) (THOC2, Q8NI27): 5.02
PRISMA enrichment of interactor (log2) (TRIP13, Q15645): 6.3
PRISMA enrichment of interactor (log2) (USP34, Q70CQ2): 4.54
PRISMA enrichment of interactor (log2) (XRN1, Q8IZH2): 9.33
PRISMA enrichment of interactor (log2) (hCG_1984214): 5.3

B2: ABR (peptide)
chain: LAEQRRPGMRLQNSG
PRISMA enrichment of interactor (log2) (ALDH4A1, P30038): 4.75
PRISMA enrichment of interactor (log2) (AURKB, Q96GD4): 6.1
PRISMA enrichment of interactor (log2) (CRABP2, P29373): 3.74
PRISMA enrichment of interactor (log2) (CTTN, Q14247): 4.52
PRISMA enrichment of interactor (log2) (DDX28, Q9NUL7): 5.52
PRISMA enrichment of interactor (log2) (EIF2D, P41214): 6.84
PRISMA enrichment of interactor (log2) (ESYT2, A0FGR8): 4.13
PRISMA enrichment of interactor (log2) (GTF3C5, Q9Y5Q8): 5.59
PRISMA enrichment of interactor (log2) (HEATR3, Q7Z4Q2): 5.43
PRISMA enrichment of interactor (log2) (HELLS, Q9NRZ9): 5.23
PRISMA enrichment of interactor (log2) (JUP, P14923): 5.6
PRISMA enrichment of interactor (log2) (KLF16, Q9BXK1): 4.59
PRISMA enrichment of interactor (log2) (LSG1, Q9H089): 9.72
PRISMA enrichment of interactor (log2) (MMTAG2, Q9BU76): 6.29
PRISMA enrichment of interactor (log2) (MRPL14, Q6P1L8): 6.66
PRISMA enrichment of interactor (log2) (NOC3L, Q8WTT2): 5.41
PRISMA enrichment of interactor (log2) (OGFR, Q9NZT2): 6.81
PRISMA enrichment of interactor (log2) (PINX1, Q96BK5): 4.91
PRISMA enrichment of interactor (log2) (PPP1R12A, O14974): 5.36
PRISMA enrichment of interactor (log2) (PPP1R2, P41236): 5.79
PRISMA enrichment of interactor (log2) (RBM34, P42696): 5.39
PRISMA enrichment of interactor (log2) (SRRM1, Q8IYB3): 4.46
PRISMA enrichment of interactor (log2) (TIPIN, Q9BVW5): 4.84
PRISMA enrichment of interactor (log2) (TRIM26, Q12899): 10.1
PRISMA enrichment of interactor (log2) (UTP3, Q9NQZ2): 7.39
PRISMA enrichment of interactor (log2) (YTHDC1, Q96MU7): 5.17
